# Variants at the background level are over-represented here.
# Assays:
# [1] = tested on: biotinyl-Trp-oxazolone; test: self-aminoacylation, catalytic enhancement (BWO) (fold over background); higher = more active; k-Seq, kA / k0A0; sequences stand for … in GGGAAUGGAUCCACAUCUACGAAUUC…UUCACUGCAGACUUGACGAAGCUG
# Outline: (§1)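 Mutagenized RNA pools with a 21-nt variable region (0.43 μM) reacted with each biotinyl-aminoacyl-oxazolone at 2–1250 μM. Reactions ran in 50 μL HEPES/NaCl/KCl/MgCl2/CaCl2 buffer with 5% acetonitrile, pH 6.9–7.0, for 90 minutes at room temperature. Streptavidin-captured RNA was quantified by triplicate qPCR and Illumina sequencing, and per-sequence fraction reacted was fit to a pseudo-first-order model with 1000 bootstraps. Catalytic enhancement is median kA divided by the uncatalyzed rate, the low-activity peak of a bimodal Gaussian fit.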
# [2] = tested on: biotinyl-Leu-oxazolone; test: self-aminoacylation, catalytic enhancement (BLO) (fold over background); higher = more active; k-Seq, kA / k0A0; sequences stand for … in GGGAAUGGAUCCACAUCUACGAAUUC…UUCACUGCAGACUUGACGAAGCUG
# Outline: as §1
# [3] = tested on: biotinyl-Val-oxazolone; test: self-aminoacylation, catalytic enhancement (BVO) (fold over background); higher = more active; k-Seq, kA / k0A0; sequences stand for … in GGGAAUGGAUCCACAUCUACGAAUUC…UUCACUGCAGACUUGACGAAGCUG
# Outline: as §1
# [4] = tested on: biotinyl-Ile-oxazolone; test: self-aminoacylation, catalytic enhancement (BIO) (fold over background); higher = more active; k-Seq, kA / k0A0; sequences stand for … in GGGAAUGGAUCCACAUCUACGAAUUC…UUCACUGCAGACUUGACGAAGCUG
# Outline: as §1
# [5] = tested on: biotinyl-Met-oxazolone; test: self-aminoacylation, catalytic enhancement (BMO) (fold over background); higher = more active; k-Seq, kA / k0A0; sequences stand for … in GGGAAUGGAUCCACAUCUACGAAUUC…UUCACUGCAGACUUGACGAAGCUG
# Outline: as §1
# [6] = tested on: biotinyl-Phe-oxazolone; test: self-aminoacylation, catalytic enhancement (BFO) (fold over background); higher = more active; k-Seq, kA / k0A0; sequences stand for … in GGGAAUGGAUCCACAUCUACGAAUUC…UUCACUGCAGACUUGACGAAGCUG
# Outline: as §1
Sequence,self-aminoacylation [1],self-aminoacylation [2],self-aminoacylation [3],self-aminoacylation [4],self-aminoacylation [5],self-aminoacylation [6]
CUAAUUCAAACAAUCGAUCUG [Fam1A.1 aminoacylation ribozyme variant],0.361,0.544,0.561,0.604,0.43,0.72
AUUACCCCGGUCAUCGAAUGA [Fam2.1 aminoacylation ribozyme variant],0.62,0.683,1.09,0.916,0.762,0.837
CCACACUGCAACCAAUCGGUC [Fam1B.1 aminoacylation ribozyme variant],0.951,1.03,1.28,1.04,0.81,1.11
ACACACUUAAAGCAAUCGGUC [Fam1B.1 aminoacylation ribozyme variant],0.971,0.923,1.11,1.08,0.917,1.23
AUUACCCUGGUCAUCGAAAGA [Fam2.1 aminoacylation ribozyme variant],0.327,0.733,0.8,0.788,0.719,0.407
CUACUUCAAACAAUCGCACUG [Fam1A.1 aminoacylation ribozyme variant],0.99,1.58,0.938,1.31,1.43,1.8
CCACACUUCAAGCCAUCCGUC [Fam1B.1 aminoacylation ribozyme variant],1.7,1.86,1.26,–,1.77,1.12
AAGUUCGCUAAUAGUCCCAAG [Fam3.1 aminoacylation ribozyme variant],0.795,0.899,0.716,1.41,1.1,1.41
AUUACCCUGGUCAUCGAUUCA [Fam2.1 aminoacylation ribozyme variant],1.57,0.884,1.1,0.92,0.689,0.588
CUUCUUCAAACAAUCGUUCUG [Fam1A.1 aminoacylation ribozyme variant],0.804,0.65,0.6,0.68,0.62,1.06
AUUCACCUAGCUCAUCAGGUG [Fam2.2 aminoacylation ribozyme variant],0.459,0.703,0.868,0.771,0.828,0.307
CUAUUUCAAACAAUCGGUCCG [Fam1A.1 aminoacylation ribozyme variant],0.945,0.816,0.683,0.682,0.802,0.799
UUACACUUCAAGCAAUCGGUC [Fam1B.1 aminoacylation ribozyme variant],15.7,1.5,1.14,1.25,1.26,30.4
AAGUGUGCUAAUAGUCUCAAG [Fam3.1 aminoacylation ribozyme variant],2.73,1.44,1.62,1.26,1.4,8.7
AAGUUUGCUAAUGGGCGCAAG [Fam3.1 aminoacylation ribozyme variant],1.5,1.08,0.874,0.937,0.695,0.784
AUGCACCAAGGUCAUCGGGUG [Fam2.2 aminoacylation ribozyme variant],9.96,9.2,5.23,4.95,7.84,59.9
AUUCCCCUGGUCAUCGAGUGG [Fam2.1 aminoacylation ribozyme variant],–,–,–,–,–,1.69
GUACGUCAAACAAUCGGUCUG [Fam1A.1 aminoacylation ribozyme variant],–,1.51,1.71,1.61,1.44,1.79
AUUCACCUAGGUUAUCAGGUG [Fam2.2 aminoacylation ribozyme variant],–,1.74,1.48,1.53,1.63,1.4
CCACCCUUCAAGCAUUCGGUC [Fam1B.1 aminoacylation ribozyme variant],1.91,1.9,–,1.72,1.97,1.1
AUGACCCUGGUCAUCGAGUCA [Fam2.1 aminoacylation ribozyme variant],–,1.45,1.13,1.17,1.35,1.21
CUACGUCAAACAAUCGGUGUG [Fam1A.1 aminoacylation ribozyme variant],1.77,–,1.52,1.22,1.66,1.01
UCACACUUCAAGCCAUCGGUC [Fam1B.1 aminoacylation ribozyme variant],0.854,1.1,1.24,1.01,1.08,–
CCACACUUCAUGCAAUCGGUU [Fam1B.1 aminoacylation ribozyme variant],0.843,1.37,1.26,1.2,1.33,–
AAGUUUGCUAAUAGUCAAAAG [Fam3.1 aminoacylation ribozyme variant],1.5,1.15,1.07,1.35,1.35,–
AUUCAGCUAGGUCAUUGGGUG [Fam2.2 aminoacylation ribozyme variant],3.25,2.38,2.55,2.04,2.62,–
GUACUUCAAACAAUCGGUGUG [Fam1A.1 aminoacylation ribozyme variant],10.2,3.35,1.97,2.12,2.77,–

Sequence,self-aminoacylation [1],self-aminoacylation [2],self-aminoacylation [3],self-aminoacylation [4],self-aminoacylation [5],self-aminoacylation [6]
GUUACCCUGGUCAUCUAGUGA [Fam2.1 aminoacylation ribozyme variant],13.4,11.7,6.05,5.9,12,–
CUACUUCAAACCAUCGGUCGG [Fam1A.1 aminoacylation ribozyme variant],0.759,1.32,1.04,1.1,1.15,–
CUACUUCCAACGAUCGGUCUG [Fam1A.1 aminoacylation ribozyme variant],0.897,0.833,1.11,0.94,0.97,–
CCACACUUCAAGUAAUCGGUG [Fam1B.1 aminoacylation ribozyme variant],4.68,6.33,2.98,3.28,4.68,–
AAGUUUGCGAAUAGCCGCAAG [Fam3.1 aminoacylation ribozyme variant],0.953,1.25,1.22,1.6,1.01,–
AAGUUUGCUAACAGCCGCAAG [Fam3.1 aminoacylation ribozyme variant],1.04,1.01,0.847,1.22,0.787,–
AUUACCCUGGUCAUCAAGUGU [Fam2.1 aminoacylation ribozyme variant],1.24,1.47,1.64,1.16,1.34,–
AUUCACCUAGGUCGUCUGGUG [Fam2.2 aminoacylation ribozyme variant],1.19,1.44,0.995,0.962,1.4,–
CCACACGUCAAGCAAUCCGUC [Fam1B.1 aminoacylation ribozyme variant],–,1.34,–,1.51,1.15,0.916
AAGUUUGCCAAUAGUCGCACG [Fam3.1 aminoacylation ribozyme variant],1.51,–,1.6,1.33,–,1.54
CAACUUCAAACAAUCAGUCUG [Fam1A.1 aminoacylation ribozyme variant],11.2,1.41,1.01,1.22,0.974,–
AAGUGUGCUAAUAGUCGCAGG [Fam3.1 aminoacylation ribozyme variant],–,1.98,1.6,1.92,1.94,1.68
CUUCACCUAGGUCAUGGGGUG [Fam2.2 aminoacylation ribozyme variant],3.7,4.06,2.7,2.5,2.84,–
CCACACUUCAAGCAAACGGGC [Fam1B.1 aminoacylation ribozyme variant],1.72,1.58,–,1.6,1.15,0.68
AAGGUUGCUAAUAAUCGCAAG [Fam3.1 aminoacylation ribozyme variant],1.59,1.19,1.02,1.41,1.11,–
AUUACCGUGGUCAUCGAGCGA [Fam2.1 aminoacylation ribozyme variant],–,1.99,1.95,1.73,1.74,1.22
CUACAGUUCAAGCAAUCGGUC [Fam1B.1 aminoacylation ribozyme variant],2.96,1.07,0.975,1.02,0.989,–
AAGUUUGCUAAUGGUCGCACG [Fam3.1 aminoacylation ribozyme variant],0.68,1.12,1.1,0.891,0.956,–
AUUCACCUACGUCAUCGGGUU [Fam2.2 aminoacylation ribozyme variant],1.54,1.93,1.55,1.39,1.31,–
AAGCUUGCUAAUAGUCUCAAG [Fam3.1 aminoacylation ribozyme variant],1.6,1.09,1.13,1.33,1.22,–
CCACCCUUCAAGCCAUCGGUC [Fam1B.1 aminoacylation ribozyme variant],–,1.56,1.86,1.53,1.48,0.968
AAGUUUUCCAAUAGUCGCAAG [Fam3.1 aminoacylation ribozyme variant],1.52,1.45,1.35,1.56,1.5,–
CUUCUUCAAACAAUCGGUCAG [Fam1A.1 aminoacylation ribozyme variant],2.59,0.623,0.734,0.818,0.655,–
AUACGUCAAACAAUCGGUCUG [Fam1A.1 aminoacylation ribozyme variant],1.67,1.28,1.36,1.6,1.5,–
AAGUUUGCUAAUAUUCCCAAG [Fam3.1 aminoacylation ribozyme variant],–,1.21,1.26,1.43,1.44,0.7
GCACACUUCAAGCAAACGGUC [Fam1B.1 aminoacylation ribozyme variant],1.31,1.28,1.47,1.61,1.19,–
ACUACCCUGGACAUCGAGUGA [Fam2.1 aminoacylation ribozyme variant],7.37,6.83,2.92,2.55,7.03,–

# — the supplement of paper PMC9233669
